Laboratory results published in US7259177B2, “Cycloalkylmethoxy-substituted acetic acid derivatives, processes for their preparation and their use as pharmaceuticals” (Sanofi-Aventis Deutschland GmbH, priority 2003, dated 2007).
Where a name gives a salt, the structure may show the parent alone. Some entries share one result that the patent states for a list of compounds.

Molecular target: T1, human PPARα (Homo sapiens, UniProt Q07869)
T1 construct: amino acids S167-Y468; expressed in transfected cells; host or cells: HEK (human embryo kidney) cells, stably transfected with pcDNA3 carrying the fusion construct
T1 sequence (Q07869 167-468): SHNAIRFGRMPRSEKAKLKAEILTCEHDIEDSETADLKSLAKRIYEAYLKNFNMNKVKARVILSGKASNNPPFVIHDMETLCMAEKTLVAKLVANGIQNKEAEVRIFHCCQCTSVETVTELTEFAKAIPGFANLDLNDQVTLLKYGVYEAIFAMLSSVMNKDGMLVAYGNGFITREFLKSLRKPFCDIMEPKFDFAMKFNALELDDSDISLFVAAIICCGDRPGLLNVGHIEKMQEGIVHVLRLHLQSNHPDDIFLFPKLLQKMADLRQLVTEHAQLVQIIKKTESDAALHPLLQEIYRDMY
Assay: Cellular PPARalpha assay (stably transfected HEK PPARalpha reporter cell line, luciferase)
Assay type: cell-based
Settings: range over the examples; each bound printed with its own unit (nm, μM)
Experimental: (A) Determination of EC50 Values of PPAR Agonists in the Cellular PPARalpha Assay
The potency of substances that bind to human PPARα and activate in an agonistic manner is analyzed using a stably transfected HEK cell line (HEK=human embryo kidney) which is referred to here as PPARalpha reporter cell line. It contains two genetic elements, a luciferase reporter element (pΔM-GAL4-Luc-Zeo) and a PPARalpha fusion protein (GR-GAL4-humanPPARα-LBD) that mediates expression of the luciferase reporter element depending on a PPARalpha ligand. The stably and constitutively expressed fusion protein GR-GAL4-humanPPARalpha-LBD binds in the cell nucleus of the PPARalpha reporter cell line via the GAL4 protein portion to the GAL4 DNA binding motifs 5′-upstream of the luciferase reporter element which is integrated in the genome of the cell line. There is only little expression of the luciferase reporter gene without addition of a PPARalpha ligand if fatty acid-depleted fetal calf serum (cs-FCS) is used in the assay. PPARα ligands bind and activate the PPARα fusion protein and thereby bring about expression of the luciferase reporter gene. The luciferase which is formed can be detected by means of chemiluminescence via an appropriate substrate.
The PPARalpha reporter cell line was prepared in 2 stages. Firstly, the luciferase reporter element was constructed and stably transfected into HEK cells. For this purpose, five binding sites of the yeast transcription factor GAL4 (each 5′-CGGAGTACTGTCCTCCGAG-3′ (SEQ ID NO:1)) were cloned in 5′-upstream of a 68 bp-long minimal MMTV promoter (Genbank Accession # V01175). The minimal MMTV promoter section contains a CCAAT box and a TATA element in order to enable efficient transcription by RNA polymerase II. The cloning and sequencing of the GAL4-MMTV construct took place in analogy to the description of Sambrook J. et. al. (Molecular cloning, Cold Spring Harbor Laboratory Press, 1989). Then the complete Photinus pyralis gene (Genbank Accession # M15077) was cloned in 3′-downstream of the GAL4-MMTV element. After sequencing, the luceriferase reporter element consisting of five GAL4 binding sites, MMTV promoter and luciferase gene was recloned into a plasmid which confers zeocin resistance in order to obtain the plasmid pΔM-GAL4-Luc-Zeo. This vector was transfected into HEK cells in accordance with the statements in Ausubel, F. M. et al. (Current protocols in molecular biology, Vol.1-3, John Wiley & Sons, Inc., 1995). […] In a second step, the PPARalpha fusion protein (GR-GAL4-humanPPARalpha-LBD) was introduced into the stable cell clone described. For this purpose, initially the cDNA coding for the N-terminal 76 amino acids of the glucocorticoid receptor (Genbank Accession # P04150) was linked to the cDNA section coding for amino acids 1-147 of the yeast transcription factor GAL4 (Genbank Accession # P04386). The cDNA of the ligand-binding domain of the human PPARalpha receptor (amino acids S167-Y468; Genbank Accession # S74349) was cloned in at the 3′-end of this GR-GAL4 construct. The fusion construct prepared in this way (GR-GAL4-humanPPARalpha-LBD) was recloned into the plasmid pcDNA3 (from Invitrogen) in order to enable constitutive expression therein by the cytomegalovirus promoter. This plasmid was linearized with a restriction endonuclease and stably transfected into the previously described cell clone containing the luciferase reporter element. The finished PPARalpha reporter cell line that contains a luciferase reporter element and constitutively expresses the PPARalpha fusion protein (GR-GAL4-human PPARalpha-LBD) was isolated by selection with zeocin (0.5 mg/ml) and G418 (0.5 mg/ml).
The activity of PPARalpha agonists is determined in a 3-day assay described below: […]

Row | Structure (SMILES) | EC50
1 | COc1ccc(-c2nc(CO[C@@H]3CCC[C@H](COC(C)(C)C(=O)O)C3)c(C)o2)cc1 (racemic) [Example 17, 2-{(1R,3S)-cis-3-[2-(4-methoxyphenyl)-5-methyloxazol-4-yl-methoxy]cyclohexylmethoxy}-2-methylpropionic acid] | ≥ 0.07 nM
2 | Cc1oc(-c2cccc(C(F)(F)F)c2)nc1COC1CCCC(COC(C)C(=O)O)C1 (stereo not drawn) [Example 7, 2-[cis-3-(5-methyl-2-(3-trifluoromethylphenyl)-oxazol-4-ylmethyl)cyclohexylmethoxy]propionic acid] | ≥ 0.07 nM
3 | Cc1ccc(-c2nc(CO[C@@H]3CCC[C@H](CNCC(=O)O)C3)c(C)o2)cc1 (relative stereo) [Example 49, 2-{[cis-3-(5-methyl-2-p-tolyloxazol-4-ylmethoxy)cyclohexylmethyl]amino}-acetic acid trifluoroacetic acid salt] | ≥ 0.07 nM
4 | Cc1oc(-c2cccc(C(F)(F)F)c2)nc1COC1CCCC(CCC(C)(C)C(=O)O)C1 (stereo not drawn) [Example 72, 2,2-dimethyl-4-{3-[5-methyl-2-(3-trifluoromethylphenyl)oxazol-4-ylmethoxy]cyclohexyl}butyric acid] | ≥ 0.07 nM
5 | CCCC(CC[C@H]1CCC[C@@H](OCc2nc(-c3cccc(OC)c3)oc2C)C1)C(=O)O (relative stereo) [Example 70, 2-(2-{cis-3-[2-(3-methoxyphenyl)-5-methyloxazol-4-ylmethoxy]cyclo-hexyl}ethyl)pentanoic acid] | ≥ 0.07 nM
6 | COc1cccc(-c2nc(CO[C@@H]3CCC[C@H](COC(C)(C)C(=O)O)C3)c(C)o2)c1 (racemic) [Example 11, 2-{(1S,3R)-cis-3-[2-(3-methoxyphenyl)-5-methyloxazol-4-ylmethoxy]cyclohexylmethoxy}-2-methylpropionic acid] | ≥ 0.07 nM
7 | Cc1oc(-c2ccc(-c3ccccc3)cc2)nc1COC[C@@H]1CCC[C@H](COC(C)(C)C(=O)O)C1 (racemic) [Example 57, 2-[cis-3-(5-Methyl-2-(4-biphenyl)oxazol-4-ylmethoxymethyl)cyclohexyl-methoxy]-2-methylpropionic acid] | ≥ 0.07 nM
8 | Cc1ccc(-c2nc(COC3CCCC(CSC(C(=O)O)C(C)C)C3)c(C)o2)cc1 (stereo not drawn) [Example 26, 2-[cis-3-(5-methyl-2-p-tolyloxazol-4-ylmethoxy)cyclohexylmethylsulfanyl]-3-methylbutyric acid] | ≥ 0.07 nM
9 | COc1ccc(-c2nc(CO[C@@H]3CCC[C@H](COC(C)(C)C(=O)O)C3)c(C)o2)cc1OC (racemic) [Example 14, 2-{(1R,3S)-cis-3-[2-(3,4-dimethoxyphenyl)-5-methyl-oxazol-4-ylmethoxy]cyclohexylmethoxy}-2-methylpropionic acid] | ≥ 0.07 nM
10 | Cc1ccc(-c2nc(CO[C@@H]3CCC[C@H](COC(C)(C)C(=O)O)C3)c(-c3ccccc3)o2)cc1 (racemic) [Example 15, 2-methyl-2-[(1R,3S)-cis-3-(5-phenyl-2-p-tolyloxazol-4-ylmethoxy)cyclo-hexylmethoxy]propionic acid] | ≥ 0.07 nM
11 | Cc1ccc(-c2nc(CO[C@@H]3CCC[C@H](CCC4(C(=O)O)CCCC4)C3)c(C)o2)cc1 (relative stereo) [Example 78, 1-{2-[cis-3-(5-Methyl-2-p-tolyloxazol-4-ylmethoxy)cyclohexyl]ethyl}cyclo-pentanecarboxylic acid] | ≥ 0.07 nM
12 | CCCC(C(=O)O)[S+]([O-])CC1CCCC(OCc2nc(-c3ccc(C)cc3)oc2C)C1 (stereo not drawn) [Example 36, 2-[cis-3-(5-methyl-2-p-tolyloxazol-4-ylmethoxy)cyclohexylmethylsulfinyl]valeric acid] | ≥ 0.07 nM
13 | Cc1ccc(-c2nc(COC3CCCC(CS(=O)(=O)C(C(=O)O)C(C)C)C3)c(C)o2)cc1 (stereo not drawn) [Example 40, 2-[cis-3-(5-methyl-2-p-tolyloxazol-4-ylmethoxy)cyclohexylmethylsulfonyl]-3-methyl-butyric acid] | ≥ 0.07 nM
14 | Cc1ccc(-c2nc(COC3CCCC(CN([C@H](C(=O)O)C(C)C)S(=O)(=O)c4ccc(C)cc4)C3)c(C)o2)cc1 (mixture of isomers) [Example 47, (S)-2-{p-toluenesulfonyl-[cis-3-(5-methyl-2-p-tolyloxazol-4-ylmethoxy)cyclohexylmethyl]amino}-3-methylbutyric acid] | ≥ 0.07 nM
15 | Cc1oc(-c2cccs2)nc1CO[C@@H]1CCC[C@H](COC(C)(C)C(=O)O)C1 (racemic) [Example 18, 2-methyl-2-[(1R,3S)-cis-3-(5-methyl-2-thiophen-2-yloxazol-4-yl-methoxy)cyclohexylmethoxy]propionic acid] | ≥ 0.07 nM
16 | Cc1cccc(-c2nc(COC3CCCC(COC(C)(C)C(=O)O)C3)c(C)o2)c1 [Example 21, 2-methyl-2-[(1R,3S)-cis-3-(5-methyl-2-m-tolyloxazol-4-ylmethoxy)cyclo-hexylmethoxy]propionic acid] | ≥ 0.07 nM
17 | Cc1ccc(-c2nc(COC3CCCC(CSC(C)C(=O)O)C3)c(C)o2)cc1 (stereo not drawn) [Example 23, 2-[cis-3-(5-methyl-2-p-tolyloxazol-4-ylmethoxy)cyclohexylmethylsulfanyl]propionic acid] | ≥ 0.07 nM
18 | Cc1ccc(-c2nc(CO[C@@H]3CCC[C@H](CN(CC(=O)O)Cc4cccs4)C3)c(C)o2)cc1 (relative stereo) [Example 53, 2-{2-thienylmethyl-[cis-3-(5-methyl-2-p-tolyloxazol-4-ylmethoxy)-cyclohexylmethyl]amino}acetic acid trifluoroacetic acid salt] | ≥ 0.07 nM
19 | Cc1oc(-c2ccccc2)nc1COC[C@@H]1CCC[C@H](COC(C)(C)C(=O)O)C1 (relative stereo) [Example 58, 2-[cis-3-(5-methyl-2-phenyloxazol-4-ylmethoxymethyl)-cyclohexylmethoxy]-2-methylpropionic acid] | ≥ 0.07 nM
20 | Cc1ccc(-c2nc(CO[C@@H]3CCC[C@H](COC(Cc4ccccc4)C(=O)O)C3)c(C)o2)cc1 (relative stereo) [Example 4, 2-[cis-3-(5-methyl-2-p-tolyloxazol-4-ylmethoxy)cyclohexyl-methoxy]-3-phenylpropionic acid] | ≥ 0.07 nM
21 | CCCCCC(C(=O)O)[S+]([O-])CC1CCCC(OCc2nc(-c3ccc(C)cc3)oc2C)C1 (stereo not drawn) [Example 33, 2-[cis-3-(5-methyl-2-p-tolyloxazol-4-ylmethoxy)cyclohexylmethylsulfinyl]heptanoic acid] | ≥ 0.07 nM
22 | CC(=O)N(CC1CCCC(OCc2nc(-c3ccc(C)cc3)oc2C)C1)[C@H](C(=O)O)C(C)C (mixture of isomers) [Example 43, (S)-2-{Acetyl-[cis-3-(5-methyl-2-p-tolyloxazol-4-ylmethoxy)cyclohexyl-methyl]amino}-3-methylbutyric acid] | ≥ 0.07 nM
23 | Cc1oc(-c2cccc(OC(F)(F)F)c2)nc1CO[C@@H]1CCC[C@H](COC(C)(C)C(=O)O)C1 (racemic) [Example 19, 2-methyl-2-[(1R,3S)-cis-3-[5-methyl-2-(3-trifluoro-methoxyphenyl)oxazol-4-ylmethoxy]cyclohexylmethoxy]propionic acid] | ≥ 0.07 nM
24 | Cc1ccc(-c2nc(COC3CCCC(CN(C(=O)c4ccccc4)[C@H](C(=O)O)C(C)C)C3)c(C)o2)cc1 (mixture of isomers) [Example 44, (S)-2-{benzoyl-[cis-3-(5-methyl-2-p-tolyloxazol-4-ylmethoxy)-cyclohexylmethyl]amino}-3-methylbutyric acid] | ≥ 0.07 nM
